Results deposited as PubChem BioAssay AID504804 (Drosophila RNAi Screening Center, 2011).
The screen tested about 19,000 reagents; shown is an unselected part of those with a known target gene and a result. Of all reagents, 47 (0.25%) got an active call. 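Signals are raw, not normalised; exact z-scores behind calls not deposited; actives needed confirmation, so some wells reaching 2 SD are inactive.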 A plus sign joins genes that one reagent is predicted to hit.

Aim: 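Fly genes whose loss lessens doxorubicin-driven cell death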 (primary screen)
Cell system: Drosophila Kc cells
Reagents: long dsRNA against Drosophila genes, 0.5 µg dsRNA per well
Duration: 96 h (48 h knock-down, then 48 h drug)
Treatment: doxorubicin 5 µg/ml for 48 h, added 48 h after dsRNA
Detection: 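Luminescent ATP counts per replicate, not normalised, reflecting viable cells after 48 h dsRNA knock-down followed by 48 h of 5 µg/ml doxorubicin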
Scale: raw ATP luminescence: higher = more viable cells, protection from doxorubicin
Hit rule: 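z-score of 2 or more over plate mean in both duplicates, retained only when retests and separate dsRNAs confirm the protection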

SerT (Serotonin transporter) [DRSC04655]
- raw ATP luminescence, replicate 1: 40557
- raw ATP luminescence, replicate 2: 49400
- outcome: inactive

CG8565 [DRSC20112]
- raw ATP luminescence, replicate 1: 3.63e5
- raw ATP luminescence, replicate 2: 3.21e5
- outcome: inactive

ninaD (neither inactivation nor afterpotential D) [DRSC02886]
- raw ATP luminescence, replicate 1: 67100
- raw ATP luminescence, replicate 2: 63807
- outcome: inactive

CG5421 [DRSC02858]
- raw ATP luminescence, replicate 1: 62807
- raw ATP luminescence, replicate 2: 71453
- outcome: inactive

CG14273 [DRSC02377]
- raw ATP luminescence, replicate 1: 39843
- raw ATP luminescence, replicate 2: 64780
- outcome: inactive

CG14424 [DRSC18472]
- raw ATP luminescence, replicate 1: 61950
- raw ATP luminescence, replicate 2: 57160
- outcome: inactive

sowi (solwind) [DRSC12558]
- raw ATP luminescence, replicate 1: 76780
- raw ATP luminescence, replicate 2: 63327
- outcome: inactive

CG12268 [DRSC14491]
- raw ATP luminescence, replicate 1: 67150
- raw ATP luminescence, replicate 2: 85750
- outcome: inactive

Prx6c + CG12896 + Prx6b [DRSC06148]
- raw ATP luminescence, replicate 1: 49640
- raw ATP luminescence, replicate 2: 76467
- outcome: inactive

GILT3 (Gamma-interferon-inducible lysosomal thiol reductase 3) [DRSC14672]
- raw ATP luminescence, replicate 1: 65840
- raw ATP luminescence, replicate 2: 58870
- outcome: inactive

Frq2 (Frequenin 2) [DRSC20245]
- raw ATP luminescence, replicate 1: 4.06e5
- raw ATP luminescence, replicate 2: 3.40e5
- outcome: inactive

CG3288 [DRSC11745]
- raw ATP luminescence, replicate 1: 63717
- raw ATP luminescence, replicate 2: 52747
- outcome: inactive
